The text below walks through data of PMC7819943, “Rice protein-binding microarrays: a tool to detect cis-acting elements near promoter regions in rice”.

Sequences of proteins named here, by UniProt entry; tags and fusion partners are left off.
UniProt Q0JBA9, entry or part of it: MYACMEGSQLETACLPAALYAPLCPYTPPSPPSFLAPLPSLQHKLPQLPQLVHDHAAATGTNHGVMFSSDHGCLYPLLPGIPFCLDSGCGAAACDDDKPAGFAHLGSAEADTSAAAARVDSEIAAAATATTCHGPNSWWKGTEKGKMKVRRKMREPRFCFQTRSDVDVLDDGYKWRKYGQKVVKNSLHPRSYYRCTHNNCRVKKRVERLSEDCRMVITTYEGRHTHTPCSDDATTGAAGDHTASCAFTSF

The list shows a part of the results.

This assay concerns the target OsWRKY34 (Oryza sativa, UniProt Q0JBA9 1-250). Description: protein-binding microarray (RPBM); PBS, 2% BSA, 51.3 ng/ul salmon testes DNA, 50 uM zinc acetate, 200 nM TF, 25 C, 1 h; high values mean tight binding. The conditions noted are these: protein: recombinant; tags: N-terminal polyhistidine and DsRed monomer fusion (pET32a); label: CyDye5-dUTP incorporated in the synthesized complementary strand; 3' TTTTT single-stranded linker to array surface; dsDNA, one strand shown. The gist of the method: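 Ni–NTA purification followed expression in E. coli BL21-CodonPlus of transcription factors fused N-terminally to a polyhistidine tag and DsRed. At 200 nM in PBS with 2% BSA, salmon testes DNA and 50 µM zinc acetate, the protein was incubated for 1 h at 25 °C with a custom Agilent array that had been primer-extended with Cy5-dUTP and blocked with 2% BSA. After washing, the array was read on an Axon 4000B scanner. The binding signal is per-feature fluorescence intensity in arbitrary units.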
With “CTCGATCTTTTCTGTTCGGTCTTTTTCTGCCCACCCCTGCCGGAGTCACCTAGTGCAG”, the binding signal was 8540 fluorescence intensity (a.u.).

For “TTTCAATATCTGGGTAGGGGCAGGTAATTGGGAGGGAATACGGAGTCACCTAGTGCAG”, the binding signal is 11600 fluorescence intensity (a.u.).

As for “GTTCGTCAACAAGCCACGGTCGTCTCAATTCCTTTTTCGTCGGAGTCACCTAGTGCAG”, the binding signal is 10800 fluorescence intensity (a.u.).

As for “CACACCACACACTGATGCAACGGCACTTAAGCGCACGAAGCGGAGTCACCTAGTGCAG”, the binding signal was 8060 fluorescence intensity (a.u.).

For the sequence “TTTCTTTGTCTCCTGTCTCACGCATTTGGTCCCGACTGATCGGAGTCACCTAGTGCAG”, the binding signal was 8610 fluorescence intensity (a.u.).

As for “TTTTATTTTACTCCTAACCCCTATCTCTACTATTATAAAACGGAGTCACCTAGTGCAG”, the binding signal is 8790 fluorescence intensity (a.u.).

Take “GGGGTGGGTATGCATCTGAGTACTCTCATAACGGCCCAGCCGGAGTCACCTAGTGCAG”: the binding signal is 10300 fluorescence intensity (a.u.).

For “ACCCTTAACTCCTACAGTCGATCGAATTATCCTCTTCAACCGGAGTCACCTAGTGCAG”, the binding signal was 8620 fluorescence intensity (a.u.).

As for “TGTGTGTGCGTGTCTATGGAACCATTGTACTAAATTTGTTCGGAGTCACCTAGTGCAG”, the binding signal was 9510 fluorescence intensity (a.u.).

For “GCGCATGGCTTTTACTTCATGAATGTTTAGTGTACCAAATCGGAGTCACCTAGTGCAG”, the binding signal is 9550 fluorescence intensity (a.u.).

For “TATTGACAATCGACACTTTTTTTTTCCAATTTTCCTTAAACGGAGTCACCTAGTGCAG”, the binding signal is 8500 fluorescence intensity (a.u.).

With “ACCGAAATTTCCAACCCTGGTCGCAGCAGCTGTTTTACCGCGGAGTCACCTAGTGCAG”, the binding signal is 8270 fluorescence intensity (a.u.).

For “GGGTGAGCTTCTTCCACGCCCGCCGGCGTCCATCTCGCGTCGGAGTCACCTAGTGCAG”, the binding signal is 9030 fluorescence intensity (a.u.).

Take “CCACCACCGCCACCAACGCTCCCCTCCGCCTCGTCCCCATCGGAGTCACCTAGTGCAG”: the binding signal is 8080 fluorescence intensity (a.u.).

Consider “CTCTTCTCTCTTTCTCTTGTGCGAGCACACACATTTTCCTCGGAGTCACCTAGTGCAG”, for which the binding signal is 9440 fluorescence intensity (a.u.).

Take “TTTTTAAACATGTTTGACCACTCGTCTTATTCAAAAACTTCGGAGTCACCTAGTGCAG”: the binding signal is 9180 fluorescence intensity (a.u.).

As for “GTGGTTGATACTAGTGTTATTATTGCTTATAGATACAATTCGGAGTCACCTAGTGCAG”, the binding signal is 8350 fluorescence intensity (a.u.).

In the case of “CGCCCACTCCCCTACCACGACCAGCCCGCACCGCACACGCCGGAGTCACCTAGTGCAG”, the binding signal was 9560 fluorescence intensity (a.u.).

On to “CCGTCTTCGCCGTCCCGGCCACTGGCAGCCCCGCGGTCGCCGGAGTCACCTAGTGCAG”, for which the binding signal is 9020 fluorescence intensity (a.u.).

Take “GTAGTACGGGGATTTTTTTTAACTTTTAATTTTATTTATTCGGAGTCACCTAGTGCAG”: the binding signal is 8450 fluorescence intensity (a.u.).

With “TTCAGTTTTTGCTTACAACGTTTGACCACTCGTCTTATTCCGGAGTCACCTAGTGCAG”, the binding signal is 11900 fluorescence intensity (a.u.).

In the case of “ACTACTCGTATATCTTTCAGTTAACATGACCATTGCACCACGGAGTCACCTAGTGCAG”, the binding signal was 9660 fluorescence intensity (a.u.).

As to “ATTTTTTTATGATTAGTATTTTTATTGTTGTTAGATGATACGGAGTCACCTAGTGCAG”, the binding signal is 11900 fluorescence intensity (a.u.).

For the sequence “TTCCTGAACAGCAATTATCACTTCATCTCCTTTGTGGGATCGGAGTCACCTAGTGCAG”, the binding signal is 8840 fluorescence intensity (a.u.).

As to “GATTGTCTTGATTTGTTTTACTAGGAGGGTTCACATTTCCCGGAGTCACCTAGTGCAG”, the binding signal is 11000 fluorescence intensity (a.u.).

Regarding “CTCCACACCTGACACCACGCGGGCTGCCTCCATCGTCATCCGGAGTCACCTAGTGCAG”, the binding signal is 8790 fluorescence intensity (a.u.).

For the sequence “GAGCCCTCCGCCGCCGCCAGCTCGCCCTTCGCCGAGCCCACGGAGTCACCTAGTGCAG”, the binding signal was 8340 fluorescence intensity (a.u.).

Consider “CTCCCATCTCTCATTCTCACCATTCACCAATGCAGCAACTCGGAGTCACCTAGTGCAG”, for which the binding signal was 10800 fluorescence intensity (a.u.).

Take “GCTCTGCTTTGTTTTCAGTTGTAATTTGTAGGCTCAAACTCGGAGTCACCTAGTGCAG”: the binding signal is 8450 fluorescence intensity (a.u.).

“GACCGAGAGCAGGCGACGGGGTGGGTGGAGGTAGTGAGAACGGAGTCACCTAGTGCAG”: the binding signal was 9200 fluorescence intensity (a.u.).

With “GGGATCGAGCTAGTTGGGGTTAGCGGTGTGGAAGGGTCGACGGAGTCACCTAGTGCAG”, the binding signal is 9120 fluorescence intensity (a.u.).

Turning to “ATCTTTCTCTAACACCGTACACCTTTTTTTCTCTATCTTACGGAGTCACCTAGTGCAG”, the binding signal was 10400 fluorescence intensity (a.u.).

“CTCTGTGCTTAAGTTGAGTTCAATTTCATTTCCAATCACACGGAGTCACCTAGTGCAG”: the binding signal was 9300 fluorescence intensity (a.u.).

As for “TCCCTACTCCCTCACCGCGCGGCCGCCGCCCCACCCACGCCGGAGTCACCTAGTGCAG”, the binding signal was 9330 fluorescence intensity (a.u.).

In the case of “GTACACTCCTCTCAGCCGGTCTATCAATTCCCCTTGGTGTCGGAGTCACCTAGTGCAG”, the binding signal was 8760 fluorescence intensity (a.u.).

Turning to “CGAGATCTCCCTCCTTCACCCGCCACCTTCTCTCTTCTCTCGGAGTCACCTAGTGCAG”, the binding signal was 10600 fluorescence intensity (a.u.).

“TTAGTTTGTACTGTGTTCTGCGTTCTTATGTACAGGGCCTCGGAGTCACCTAGTGCAG”: the binding signal is 9480 fluorescence intensity (a.u.).

For the sequence “GGATACCTCATATGTTGTGTGTCAATGTGTTTGTTATTCTCGGAGTCACCTAGTGCAG”, the binding signal was 11800 fluorescence intensity (a.u.).

Turning to “ACGTCTCATCGGCACATGCGTGGGCCCACCCATCCATCCCCGGAGTCACCTAGTGCAG”, the binding signal is 10800 fluorescence intensity (a.u.).

Consider “CCAAATCTTTCAGTTAATGTTATTTTCCCTTTCAATTTATCGGAGTCACCTAGTGCAG”, for which the binding signal is 8090 fluorescence intensity (a.u.).

Regarding “TGTTTTCTGTTCTTTGTTGACTTTAAGTCGCTAAATTTTGCGGAGTCACCTAGTGCAG”, the binding signal is 11500 fluorescence intensity (a.u.).

For “TAGTAGGGTTTTTTCGCTTGCAACTCCTGCGGCTCGAACACGGAGTCACCTAGTGCAG”, the binding signal was 9090 fluorescence intensity (a.u.).

As to “TGGGAATACGATCTCTTGGGTTTTGTGCTGTTACTAGCTCCGGAGTCACCTAGTGCAG”, the binding signal was 9300 fluorescence intensity (a.u.).

Regarding “TTAGTCGTCTGTTCATATTCTCTCTCCTTACTATTTCACTCGGAGTCACCTAGTGCAG”, the binding signal is 9620 fluorescence intensity (a.u.).

As to “CTGGTTTTGTAGTTTAGGGTCATGGTTTAGATTTCGATCACGGAGTCACCTAGTGCAG”, the binding signal is 11800 fluorescence intensity (a.u.).

For the sequence “TGTGGTATTTTTGTCAAACATTTAACCGTCCATCTTATTTCGGAGTCACCTAGTGCAG”, the binding signal was 8440 fluorescence intensity (a.u.).

Turning to “GGTTTTACTTGCGATACCCTTCGTCTCCCTCACGTCCCATCGGAGTCACCTAGTGCAG”, the binding signal was 10200 fluorescence intensity (a.u.).

For the sequence “ATCCTCGACCTCGACTGCGACCACTACGTCAACAACTCGCCGGAGTCACCTAGTGCAG”, the binding signal was 10500 fluorescence intensity (a.u.).

In the case of “TCCATCTTTCATCTGTTATTTTGCTCTTGTTTTGATGGTACGGAGTCACCTAGTGCAG”, the binding signal is 8410 fluorescence intensity (a.u.).

As to “AGTCCTGTAAGCAAGTCTCTGTCCAGTCAATTTGTCAAATCGGAGTCACCTAGTGCAG”, the binding signal is 9440 fluorescence intensity (a.u.).

In the case of “ATTTGCAGAGTTATGTTTGTTTCCTATTTTGCCCTGTTTACGGAGTCACCTAGTGCAG”, the binding signal was 12800 fluorescence intensity (a.u.).

With “CCCCATCCGCGCCTCCAACTCGCTGTTGCCCTCACCTCGACGGAGTCACCTAGTGCAG”, the binding signal is 8980 fluorescence intensity (a.u.).

Take “CATGCGGGTCTCATTAACTCTATTGTTTTCTCCGATAGAACGGAGTCACCTAGTGCAG”: the binding signal was 10000 fluorescence intensity (a.u.).

Consider “CGGAGGGAGCTCAGGGAGGGAGGGAGGAGGGGCGGCGATGCGGAGTCACCTAGTGCAG”, for which the binding signal was 13300 fluorescence intensity (a.u.).
